In PubChem BioAssay AID540276 (National Center for Advancing Translational Sciences (NCATS), 2011):
Screen size: about 300,000 compounds; about 5,400 (1.8%) were called active. Inconclusive means that the source gave no clear call. Such entries were picked first, then a sample of the others. Calls come from the whole dose curve; tested in HEK293 cells. Where the call is inconclusive, the potency comes from a doubtful curve fit.
Potency is the fitted concentration of half-maximal effect.

Test: qHTS for inhibitors of binding or entry into cells for Marburg Virus
Conditions: Marburg virus pseudotyped entry inhibition, cell reporter; series mostly up to 37.8 µM
For CN1c2ccccc2C(C)(C)C12C=Cc1cc(O)ccc1O2 (centres undefined), the Potency was inconclusive: 23.1 µM [inhibitor, partial curve, poor fit].
For COc1cc([N+](=O)[O-])ccc1NC(=O)Nc1nc2c(s1)CCCC2, the Potency was inconclusive: 0.562 µM [inhibitor, single point].
For CC[N+](CC)(CC)CC(=O)Nc1c(C)cccc1C, the Potency was “inactive”.
For COc1ccccc1C1=NOC(CN2C(=O)c3ccccc3S2(=O)=O)C1 (centres undefined), the Potency was inconclusive: 3.98 µM [activator, full curve, poor fit].
With Cc1ccc(-c2noc(-c3cc4ccccc4oc3=O)n2)cc1 the Potency was inconclusive: 35.5 µM [activator, single point].
In the case of Cc1cc(NCc2ccccc2)nc2ccccc12, the Potency is reported as inconclusive: 35.5 µM [inhibitor, single point].
For CN(CC(=O)Nc1cccc(F)c1)C(=O)c1ccc(C2SCCS2)cc1, the Potency was inconclusive: 20 µM [inhibitor, single point].
With COc1cccc(OCc2nnc(SCc3cc(=O)[nH]c4ccccc34)o2)c1 the Potency was inconclusive: 35.5 µM [inhibitor, single point].
With Cc1cc(C)[n+](-c2ccc(Oc3ccccc3)c(S(=O)(=O)[O-])c2)[nH]1 the Potency was “inactive”.
In the case of CC(=O)Nc1ccc(NC(=O)CCCCCn2nnc3ccccc3c2=O)cc1, the Potency is reported as “inactive”.
For COc1ccc(CCC(C(O)C(F)(F)F)S(=O)c2ccccc2)cc1 (centres undefined), the Potency was “inactive”.
With Cc1ccc(-c2csc3ncnc(-n4nnc5ccccc54)c23)cc1C the Potency was inconclusive: 1.26 µM [activator, single point].
With CCCOCn1cc(F)c(=O)[nH]c1=O the Potency was “inactive”.
For CCOC(=O)C1=C(CC)Nc2ccccc2N/C1=N\S(=O)(=O)c1ccc2ccccc2c1, the Potency was inconclusive: 28.2 µM [inhibitor, single point].
With Nc1c(C(=O)Nc2nccs2)sc2nc(-c3cccs3)cc(C(F)(F)F)c12 the Potency was “inactive”.
With COc1ccc(C(=O)Nc2ccc(-c3ccc(NC(=O)c4ccc(OC)cc4)c(OC)c3)cc2OC)cc1 the Potency was inconclusive: 1.26 µM [activator, single point].
In the case of COc1cccc(OC)c1C(=O)OCC(=O)N1CCC(Cc2ccccc2)CC1, the Potency is reported as “inactive”.
For COc1ccc(-c2ccc3c(N)c(C(=O)NCc4ccc(C)cc4)sc3n2)cc1, the Potency was “inactive”.
For COc1ccc(C2=C(Nc3ccc(C)cc3)c3ccccc3C2=O)cc1, the Potency was “inactive”.
For COc1ccc2c(c1)CCc1sc(NC(=O)c3ccc(C)cc3)nc1-2, the Potency was “inactive”.
With CCc1ccc(C(=O)C(C)OC(=O)Cn2cnc3c2c(=O)n(C)c(=O)n3C)cc1 (centres undefined) the Potency was “inactive”.
In the case of O=C(NCCCNc1ccc([N+](=O)[O-])cc1)C(F)(F)F, the Potency is reported as inconclusive: 0.631 µM [activator, partial curve, poor fit].
With CC(Oc1ccc2c(c1)oc(=O)c1ccccc12)C(=O)NCCN1CCOCC1 (centres undefined) the Potency was “inactive”.
For O=C(NCc1ccc2c(c1)OCO2)C1CCCN1C(=O)Nc1ccc(Cl)cc1 (centres undefined), the Potency was inconclusive: 11.2 µM [inhibitor, partial curve, poor fit].
For CC1(C)OC2OC3C(CNCCO)OC(c4ccccc4)OC3C2O1 (centres undefined), the Potency was inconclusive: 12.6 µM [activator, single point].
In the case of CCC(C(=O)NN1C(=O)c2ccccc2C1=O)c1ccccc1 (centres undefined), the Potency is reported as “inactive”.
With Cn1cc(C(=O)OCC(=O)NC2(C#N)CCCCC2)c2ccccc21 the Potency was inconclusive: 2.51 µM [activator, single point].
In the case of COc1cccc(C(=O)Nc2ccc(NC(=O)C3CCCCC3C(=O)O)cc2)c1 (centres undefined), the Potency is reported as “inactive”.
With O=C(c1cccc(Cl)c1)N1c2ncnn2C2(CCCCC2)[C@@H]2CCCC[C@@H]21 the Potency was inconclusive: 22.4 µM [inhibitor, partial curve, poor fit].
With Cc1ccc(-n2c(SCC(=O)OC(C)C)nnc2-c2ccncc2)cc1 the Potency was inconclusive: 25.1 µM [inhibitor, single point].
With OCCC1CN(Cc2ccc3nonc3c2)CCN1Cc1ccsc1 (centres undefined) the Potency was inconclusive: 1.26 µM [activator, partial curve, poor fit].
In the case of COc1ccc(CCC(=O)NNC(=O)c2ccccn2)cc1OC, the Potency is reported as inconclusive: 17.8 µM [inhibitor, partial curve, poor fit].
With COc1ccc(CNC(=O)COC(=O)CCC2CCCCC2)cc1 the Potency was “inactive”.
For COc1ccc(C(=O)O)cc1S(=O)(=O)NCCCN1CCCC1=O, the Potency was inconclusive: 0.112 µM [activator, full curve, poor fit].
In the case of NNc1nc(-c2ccccc2)c2ccccc2n1, the Potency is reported as “inactive”.
For O=C(CCCOc1cccc(Br)c1)NCCOc1ccccc1, the Potency was “inactive”.
In the case of O=C(N/N=C(\Cc1ncc[nH]1)c1ccccc1)c1cccnc1, the Potency is reported as inconclusive: 1.26 µM [inhibitor, full curve, poor fit].
In the case of O=C(/C=C/c1cccs1)Nc1sc2c(c1C(=O)O)CCCC2, the Potency is reported as inconclusive: 3.16 µM [inhibitor, full curve, poor fit].
For Cc1cc(C)cc(NC(=O)CSc2nnc(-c3ccc(S(=O)(=O)N4CCCC4)cc3)o2)c1, the Potency was inconclusive: 0.058 µM [inhibitor, partial curve, poor fit].
With CCCNC(=O)OC[C@H]1O[C@H](CCON=C(C)CCN2CCCc3nc(C)c(C)cc32)C=C[C@H]1Oc1ccc(OC)cc1 the Potency was inconclusive: 1.06 µM [inhibitor, full curve, poor fit].
For Cc1ccc(S(=O)(=O)N/N=C/c2ccc(O)c(O)c2)cc1[N+](=O)[O-], the Potency was “inactive”.
In the case of COc1cc(C2C3=C(CC(C)(C)CC3=O)N(C)C3=C2C(=O)CC(C)(C)C3)ccc1O, the Potency is reported as inconclusive: 1.58 µM [inhibitor, single point].
In the case of Cc1cc(C)nc(SCc2ccc(F)cc2)n1, the Potency is reported as “inactive”.
With CC(=O)NC1(c2nnnn2CCOC(=O)Nc2ccc(Cl)cc2)CCCCC1 the Potency was inconclusive: 35.5 µM [activator, single point].
For COc1cc(OC)cc(C(=O)Oc2ccc(/C=N/Nc3nc4ccccc4s3)cc2OC)c1, the Potency was inconclusive: 20 µM [inhibitor, single point].
With CC(C)Sc1nnc(NC(=O)c2ccco2)s1 the Potency was inconclusive: 10 µM [inhibitor, partial curve, poor fit].
For COc1ccccc1C(=O)NC(C(=O)NCCc1nc2ccccc2[nH]1)=C(C)C, the Potency was inconclusive: 6.31 µM [inhibitor, single point].
For COc1ccc(C2C(C(=O)N3CCN(c4ccccn4)CC3)CCC(=O)N2c2ccc(OC)cc2)cc1 (centres undefined), the Potency was “inactive”.
With CCOc1cc(/C=C2\C(=N)N3N=CSC3=NC2=O)ccc1OS(=O)(=O)c1ccccc1 the Potency was “inactive”.
With COc1ccc(Cc2nnc(NC(=O)c3ccccc3)s2)cc1OC the Potency was inconclusive: 0.631 µM [inhibitor, partial curve, poor fit].
In the case of CCOC(=O)c1c(C)oc2c(CN3CCN(C)CC3)c(Br)c(OC)c(O)c12, the Potency is reported as inconclusive: 23.1 µM [inhibitor, single point].
For Cc1cc(Br)cc2c1N(Cc1ccccc1OC(C)C)C(=O)C2=O, the Potency was inconclusive: 10 µM [inhibitor, partial curve, poor fit].
In the case of Cc1ccc(N2CC(C(=O)Nc3ccccc3N3CCCC3)CC2=O)cc1 (centres undefined), the Potency is reported as inconclusive: 5.01 µM [activator, single point].
With CCCc1cc(=O)n2[nH]cc(-c3ccc(Cl)cc3)c2n1 the Potency was inconclusive: 35.5 µM [inhibitor, single point].
For COc1ccc(C(=O)Nc2cccnc2Sc2ccc(Cl)cc2)cc1, the Potency was “inactive”.
With O=C(NC(=S)Nc1cccc2c(O)cccc12)c1ccco1 the Potency was inconclusive: 5.62 µM [activator, full curve, poor fit].
With O=C(/C=C/c1ccccc1Cl)NCCc1ccc(F)cc1 the Potency was inconclusive: 14.6 µM [activator, partial curve, poor fit].
In the case of CCOc1ccc(NC(=O)Cc2ccccc2)cc1, the Potency is reported as inconclusive: 1.41 µM [activator, partial curve, poor fit].
In the case of CCN(CC)c1ccc(C=Nc2ccc(N(C)C)cc2)c(O)c1, the Potency is reported as “inactive”.
For CC(C)Oc1ccc(CNC(=O)c2ccc(NC(=O)N3CC(C)Sc4ccccc43)cc2)cc1 (centres undefined), the Potency was inconclusive: 35.5 µM [inhibitor, partial curve, poor fit].
For O=C(COC(=O)CCC(=O)c1cccs1)Nc1ncc(Cl)cc1Cl, the Potency was inconclusive: 5.62 µM [activator, single point].
For CC1CCN(c2nnc(-c3cccs3)c3ccccc23)CC1, the Potency was “inactive”.
For Cc1[nH]c(=O)[nH]c(=O)c1S(=O)(=O)N1CCCC(C(=O)N2CCN(c3cccc(C(F)(F)F)c3)CC2)C1 (centres undefined), the Potency was inconclusive: 14.1 µM [inhibitor, single point].
With Cc1cccc(Cn2c(COc3ccccc3)nc3ccccc32)c1 the Potency was inconclusive: 0.891 µM [inhibitor, full curve, poor fit].
With O=C(CSc1nnc(-c2cccs2)n1-c1ccccc1)N1CCCc2ccccc21 the Potency was active: 11.6 µM.
In the case of COc1cc(C(=O)OCCNC(=O)c2cccnc2)cc(OC)c1OC, the Potency is reported as inconclusive: 22.4 µM [inhibitor, single point].
For COc1ccccc1C(=O)Nc1ccc2c(c1)nc(CCNC(=O)c1ccccc1)n2C, the Potency was inconclusive: 1.12 µM [inhibitor, full curve, poor fit].
For C/C(=N\NC(=O)c1c(Br)c(C)nn1C)c1ccc(NC(=O)C(C)Oc2ccc(Cl)cc2C)cc1 (centres undefined), the Potency was inconclusive: 35.5 µM [inhibitor, single point].
For COc1cc(CN2CCC(C(=O)N3CCN(c4ccccc4F)CC3)CC2)cc(OC)c1O, the Potency was “inactive”.
